Measurements: PubChem BioAssay AID651640 (Broad Institute, 2012)
The whole screen tested about 350,000 compounds, of which about 6,000 (1.7%) were called active. The inconclusive results got no clear call from the source; some entries with a clear call stand among them for comparison. Cut-off read from the data, not from the text of the source: active = CPE inhibition above about 20% (passing the limit was not always enough); inconclusive = no clear call, values can overlap the other calls; tested in BHK-21 cells.

Assay: protection of cells from dengue 2 killing – plate reader, single concentration, primary screen (AID 651640);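 note: 0% = median of neutral control wells and 100% = median of positive control wells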
Details: DENV2-infected cells, cytopathic effect rescue, at 9.99 µM, stronger effect = higher value
In the case of `Cc1cccc(N2C(=O)C(O)=C(C(=O)c3cccs3)C2c2ccc(Cl)cc2)n1` (stereo not drawn), the CPE inhibition is reported as inactive: 4.11%.
For `O=C(Cc1ccccn1)N1CC(=O)N2[C@@H](CO)[C@@H](c3ccc(-c4ccc(F)cc4)cc3)[C@@H]2C1`, the CPE inhibition was inconclusive: 21.4%.
With `Cn1ncc(Cl)c1C(=O)N1CCN(S(=O)(=O)c2cccs2)CC1` the CPE inhibition was inconclusive: 25.8%.
With `Fc1ccc(-c2nc(-c3cccs3)[nH]c2-c2ccc(F)cc2)cc1` the CPE inhibition was inconclusive: 49.4%.
In the case of `O=C(c1cccnc1)N1CC(=O)N2[C@H](C1)[C@@H](c1ccc(-c3ccccc3F)cc1)[C@@H]2CO`, the CPE inhibition is reported as active: 34.7%.
For `N#CCCN(Cc1ccccc1)C(C(=O)NC1CCCCC1)C1CC1` (stereo not drawn), the CPE inhibition was inconclusive: 65%.
With `N#C[C@H]1[C@@H](c2ccccc2C2=CCCC2)[C@@H](CO)N1C(=O)C1CCC1` the CPE inhibition was active: 37.4%.
With `COc1ccc(S(=O)(=O)N(C)C[C@H]2OCCCC[C@H](C)Oc3ccc(NC(=O)c4ccncc4)cc3C(=O)N([C@@H](C)CO)C[C@H]2C)cc1` the CPE inhibition was inconclusive: 33.9%.
For `CC[C@@]1(C(=O)OC)N[C@H](CN(C)C(C)=O)[C@@H]2C(=O)N(C)C(=O)[C@@H]21`, the CPE inhibition was inconclusive: 41.8%.
With `CN(C)c1ccc(CNCCC(Cc2ccccc2)c2ccco2)cc1` (stereo not drawn) the CPE inhibition was inactive: 4.26%.
For `CCc1cccc(NC(=O)C2CCN(S(=O)(=O)c3ccc4c(c3)NC(=O)CO4)CC2)c1`, the CPE inhibition was inactive: -3.83%.
In the case of `CNC[C@@H]1Oc2ncc(-c3ccc(C)cc3)cc2C(=O)N([C@H](C)CO)C[C@H]1C`, the CPE inhibition is reported as inactive: -1.09%.
With `C[C@H]1CN([C@@H](C)CO)C(=O)c2cc(-c3ccccc3F)cnc2O[C@H]1CN(C)Cc1cccc(F)c1` the CPE inhibition was inactive: 9.03%.
With `O=C(NC1CCCCCC1)C1CCCN(S(=O)(=O)c2cnc[nH]2)C1` (stereo not drawn) the CPE inhibition was inconclusive: 39.9%.
In the case of `COc1ccc(C#Cc2ccc([C@H]3[C@@H](CO)N4C(=O)CN(C(=O)Nc5ccccc5F)C[C@H]34)cc2)cc1`, the CPE inhibition is reported as inconclusive: 30%.
In the case of `CC(OC(=O)c1nn(C)c(=O)c2ccccc12)C(=O)Nc1ccc(S(N)(=O)=O)cc1` (stereo not drawn), the CPE inhibition is reported as inconclusive: 43.5%.
With `CCC1=C(C)CN(C(=O)NCCc2ccc(S(=O)(=O)NC(=O)NC3CCC(C)CC3)cc2)C1=O` (stereo not drawn) the CPE inhibition was inconclusive: 20%.
With `NCC12CC3CC(C1)CC(c1ccc(Br)cc1)(C3)C2` the CPE inhibition was inactive: 6.7%.
For `CCN1C(=O)C2(SC(NC(C)=O)=NN2C(C)=O)c2cc(C)cc(C)c21` (stereo not drawn), the CPE inhibition was inconclusive: 24%.
For `Cc1cccc(C)c1Nc1nnc(SC/C(O)=C(\C#N)c2nc3ccccc3[nH]2)s1`, the CPE inhibition was inconclusive: 20.5%.
In the case of `C[n+]1nc(Nc2ccccc2)sc1-c1ccc(O)cc1`, the CPE inhibition is reported as inconclusive: 34.6%.
For `CCCOc1ccc(S(=O)(=O)N2CCCC2)cc1[N+](=O)[O-]`, the CPE inhibition was inconclusive: 23.7%.
In the case of `O=C(Nc1cccc(F)c1)N1CC(=O)N2[C@H](CO)[C@H](c3ccc(C#CCC4CCCC4)cc3)[C@H]2C1`, the CPE inhibition is reported as inactive: 6.1%.
In the case of `O=C([C@H]1[C@H](CO)[C@H]2Cn3c(ccc(C4=CCCCC4)c3=O)[C@H]2N1Cc1nccs1)N1CCCCC1`, the CPE inhibition is reported as inconclusive: 86.6%.
In the case of `C[C@@H]1CN([C@@H](C)CO)C(=O)CCCn2cc(nn2)CO[C@@H]1CN(C)Cc1ccc(O)cc1`, the CPE inhibition is reported as inactive: -4.84%.
With `O=C(Cc1cccc(NC(=O)C2CCCN(C(=O)C3CCC3)C2)c1)Nc1ccc(C(=O)N2CCOCC2)cc1` (stereo not drawn) the CPE inhibition was active: 31.6%.
In the case of `C[C@H](CO)N1C[C@H](C)[C@@H](CN(C)CC2CC2)Oc2c(NS(=O)(=O)c3cccs3)cccc2C1=O`, the CPE inhibition is reported as inactive: -8.03%.
In the case of `COc1cccc(C(=O)C2CCCN(C(=O)c3ccccn3)C2)c1` (stereo not drawn), the CPE inhibition is reported as inconclusive: 27.7%.
For `CCCNC(=O)N1[C@H](CO)[C@H]2c3ccccc3N(C(=O)Nc3cccc(F)c3)C[C@H]21`, the CPE inhibition was inactive: 2.77%.
With `O=C(CCCOc1ccccc1)N1CCN(S(=O)(=O)c2ccccc2)CC1` the CPE inhibition was inconclusive: 89.6%.
With `CN(C)Cc1cn(CC[C@H]2CC[C@H](NC(=O)Cc3cccnc3)[C@@H](CO)O2)nn1` the CPE inhibition was inconclusive: 24.5%.
In the case of `Cc1ccc(S(=O)(=O)Nc2ccc3c(c2)C(=O)N([C@H](C)CO)C[C@H](C)[C@@H](CN(C)C(=O)CCCN(C)C)OCCCC[C@@H](C)O3)cc1`, the CPE inhibition is reported as inconclusive: 20.4%.
In the case of `N#C[C@@H]1[C@H](c2ccc(C#CC3CCCC3)cc2)[C@@H](CO)N1S(=O)(=O)c1ccccc1`, the CPE inhibition is reported as active: 50.4%.
With `CN(C)CC(=O)N1[C@H](CO)[C@@H](c2ccccc2)C12CN(C(=O)C1CCCC1)C2` the CPE inhibition was active: 51.2%.
For `O=C(Nc1ccc(Cl)cc1)OCC12COCN1COC2`, the CPE inhibition was inconclusive: 47.4%.
With `C/C=C/c1cnc2c(c1)C(=O)N([C@H](C)CO)C[C@@H](C)[C@H](CN(C)Cc1ccc(F)cc1)O2` the CPE inhibition was inconclusive: 21.1%.
With `CN1CCN(C(=O)C[C@@H]2CC[C@@H]3[C@H](COC[C@H](O)CN3C(=O)C3CC3)O2)CC1` the CPE inhibition was inconclusive: 68.2%.
With `C[C@@H]1CN([C@@H](C)CO)C(=O)c2cc(NC(=O)Cn3cnnn3)ccc2O[C@H]1CN(C)S(=O)(=O)c1cccs1` the CPE inhibition was inconclusive: 27.6%.
For `Cc1ccc(-n2c(SCC(=O)Nc3ccc(N4CCOCC4)cc3)nc3ccccc3c2=O)cc1`, the CPE inhibition was inconclusive: 77.4%.
For `Cc1cc(NC(=O)C2CC(=O)N(c3ccccc3C)C2)no1` (stereo not drawn), the CPE inhibition was inactive: 2.1%.
In the case of `Fc1cccc(/C=N/N=C/c2cccc(F)c2)c1`, the CPE inhibition is reported as inactive: 2.84%.
With `N#C[C@H]1[C@H](c2ccc(-c3cccc(F)c3)cc2)[C@H](CO)N1C(=O)NC1CCCCC1` the CPE inhibition was inconclusive: 24%.
For `C=CCNC(=O)c1c(CSc2ccccc2)noc1C(=O)NCc1ccccc1`, the CPE inhibition was inconclusive: 58.6%.
With `O=C(CSc1nnc(CNC(=O)c2c(F)cccc2F)o1)NCc1ccc(F)cc1` the CPE inhibition was inconclusive: 24.7%.
With `C[C@H](CO)N1C[C@H](C)[C@H](CN(C)C(=O)CN2CCOCC2)Oc2cc(/C=C/c3ccccc3)ccc2S1(=O)=O` the CPE inhibition was inconclusive: 22.2%.
In the case of `C[C@@H]1CCCCO[C@H](CN(C)C(=O)Nc2ccc3c(c2)OCO3)[C@H](C)CN([C@@H](C)CO)C(=O)c2cc(NC(=O)Nc3cccc4ccccc34)ccc2O1`, the CPE inhibition is reported as inactive: 9.12%.
For `Cc1ccc(S(=O)(=O)N2CCN(C(=O)C(C)Cn3cncn3)CC2)cc1` (stereo not drawn), the CPE inhibition was inconclusive: 32.4%.
In the case of `O=C(NC(=O)c1csnn1)Nc1ccccc1Cl`, the CPE inhibition is reported as inconclusive: 51.9%.
In the case of `CCCCN1C(Nc2ccccc2)=NC[C@@H]1Cc1ccccc1`, the CPE inhibition is reported as active: 21.6%.
In the case of `C[C@H](CO)N1C[C@H](C)[C@H](CN(C)C(=O)c2ccccc2)OCCCC[C@H](C)Oc2ccc(NC(=O)CCC(F)(F)F)cc2C1=O`, the CPE inhibition is reported as inactive: -3.22%.
For `C[C@H](CO)N1C[C@H](C)[C@@H](CN(C)C(=O)Nc2cccc(Oc3ccccn3)c2)OCc2cnnn2CCCC1=O`, the CPE inhibition was inconclusive: 67.8%.
With `Cc1ccccc1NC(=O)Nc1ccc2c(c1)C(=O)N(C)[C@H]1CC[C@H](CC(=O)NCC3CC3)O[C@H]1CO2` the CPE inhibition was inactive: -0.835%.
For `COc1ccccc1N(CC(=O)N(c1ccccc1)C(C)C)S(=O)(=O)c1cccs1`, the CPE inhibition was inactive: 0.926%.
With `CCOC(=O)c1sc(NC(=O)CN2CC(C)OC(C)C2)nc1C` (stereo not drawn) the CPE inhibition was inactive: -3.01%.
In the case of `CC1CCCN(CCCNC(=O)c2ccc(CS(=O)(=O)Cc3cccc(Cl)c3)o2)C1` (stereo not drawn), the CPE inhibition is reported as inconclusive: 23.4%.
For `CC=Cc1ccc2n(c1=O)C[C@H]1[C@H](CO)[C@@H](C(=O)NC3CCCC3)N(Cc3nccs3)[C@@H]21` (mixture of isomers), the CPE inhibition was inconclusive: 30.9%.
For `Cc1ccc2nc(SCC(=O)NCc3ccco3)nc(=O)n2c1`, the CPE inhibition was inactive: 1.38%.
With `COc1ccc(S(=O)(=O)N2CCC[C@@H]2C(=O)N2CCC[C@H]2C(=O)NCc2ccncc2)cc1C` the CPE inhibition was inconclusive: 49%.
In the case of `CN(C)C(=O)c1cccc(-c2ccc([C@H]3[C@H](CO)N4CCCCN(C(=O)C5CCC5)C[C@@H]34)cc2)c1`, the CPE inhibition is reported as inactive: -9.78%.
For `Cc1[nH]c(=O)c(C(=O)c2cc(Cl)ccc2O)cc1C(=O)O`, the CPE inhibition was inconclusive: 23.6%.
For `C[C@H](NC(=O)C[C@H]1CC[C@@H]2[C@H](COC[C@H](O)CN2Cc2cc(F)ccc2F)O1)c1ccccc1`, the CPE inhibition was inactive: 0.474%.
For `CC(C)c1cn(CC[C@@H]2CC[C@H](NC(=O)C3CCOCC3)[C@H](CO)O2)nn1`, the CPE inhibition was active: 30.8%.
With `O=C(CSC(=S)N1CCOCC1)Nc1ncc2c(n1)CC(c1ccco1)CC2=O` (stereo not drawn) the CPE inhibition was active: 30%.
With `COc1cccc(S(=O)(=O)N(C)C[C@H]2OCc3cnnn3CCCC(=O)N([C@H](C)CO)C[C@H]2C)c1` the CPE inhibition was inconclusive: 64.4%.
In the case of `Cc1noc(C)c1S(=O)(=O)Nc1ccc2c(c1)C(=O)N([C@H](C)CO)C[C@H](C)[C@H](CN(C)S(C)(=O)=O)OCCCC[C@H](C)O2`, the CPE inhibition is reported as inactive: -2.38%.
For `CCCOc1ccc(C(=O)NCC(c2ccco2)N(C)C)cc1OC` (stereo not drawn), the CPE inhibition was inconclusive: 42%.
For `COc1ccc([N+](=O)[O-])cc1NC(=O)C(C)OC(=O)CSC(C)C(=O)Nc1cc(C)on1` (stereo not drawn), the CPE inhibition was inconclusive: 49.1%.
In the case of `C/C=C/c1ccc([C@@H]2[C@@H](CNC(=O)c3ccncc3)N(C(C)=O)[C@H]2CO)cc1`, the CPE inhibition is reported as inconclusive: 37.6%.
With `O=C(CCNS(=O)(=O)c1ccccc1)N1CCN(c2ccccc2F)CC1` the CPE inhibition was inconclusive: 23.9%.
In the case of `CC(C)C[C@@H](COc1ccccc1)N1CCN(CCc2ccccc2)CCC1=O`, the CPE inhibition is reported as active: 101%.
In the case of `Cc1cc2c([nH]c3ccccc32)c(C)n1`, the CPE inhibition is reported as inconclusive: 25.9%.
In the case of `Cc1cc(C(=O)Nc2ccc(Br)cc2)c2ccccc2n1`, the CPE inhibition is reported as inconclusive: 24.4%.
For `C[C@@H]1CCCCO[C@H](CN(C)S(=O)(=O)c2ccc(Cl)cc2)[C@H](C)CN([C@@H](C)CO)C(=O)c2cc(NC(=O)Nc3ccc4c(c3)OCO4)ccc2O1`, the CPE inhibition was active: 34.3%.
